The supplement of paper PMC12819154, “High-throughput peptide-centric local stability assay extends protein–ligand identification to membrane proteins, tissues and bacteria” (Nature Structural & Molecular Biology, 2025)
Some of the results follow. Small differences around the control level are noise.

The chains behind the UniProt entries cited, without tags or fusion partners. Where a name states a change or a piece, a line headed by the entry shows the natural chain unless it says otherwise.
UniProt Q9ULC8: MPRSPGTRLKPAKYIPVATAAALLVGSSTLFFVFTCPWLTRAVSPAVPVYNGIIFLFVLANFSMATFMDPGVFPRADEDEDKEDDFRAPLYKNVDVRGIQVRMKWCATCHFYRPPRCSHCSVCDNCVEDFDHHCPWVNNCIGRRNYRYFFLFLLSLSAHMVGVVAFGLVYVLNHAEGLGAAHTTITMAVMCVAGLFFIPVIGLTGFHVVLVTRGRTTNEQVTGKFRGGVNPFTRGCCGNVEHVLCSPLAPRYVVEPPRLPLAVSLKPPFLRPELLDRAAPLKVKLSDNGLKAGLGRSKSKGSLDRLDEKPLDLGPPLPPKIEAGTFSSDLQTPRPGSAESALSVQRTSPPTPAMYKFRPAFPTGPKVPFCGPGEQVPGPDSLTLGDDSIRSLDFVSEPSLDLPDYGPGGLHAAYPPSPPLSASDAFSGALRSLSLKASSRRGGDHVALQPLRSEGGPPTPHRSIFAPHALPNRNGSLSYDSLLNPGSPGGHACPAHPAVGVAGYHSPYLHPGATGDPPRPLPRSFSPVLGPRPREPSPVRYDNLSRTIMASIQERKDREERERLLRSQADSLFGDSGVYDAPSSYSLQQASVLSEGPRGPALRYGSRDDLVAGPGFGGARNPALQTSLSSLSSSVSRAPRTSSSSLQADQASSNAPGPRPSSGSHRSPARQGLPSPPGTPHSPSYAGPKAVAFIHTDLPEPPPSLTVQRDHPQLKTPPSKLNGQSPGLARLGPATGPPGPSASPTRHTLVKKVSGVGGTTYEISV
UniProt Q9Y2P8: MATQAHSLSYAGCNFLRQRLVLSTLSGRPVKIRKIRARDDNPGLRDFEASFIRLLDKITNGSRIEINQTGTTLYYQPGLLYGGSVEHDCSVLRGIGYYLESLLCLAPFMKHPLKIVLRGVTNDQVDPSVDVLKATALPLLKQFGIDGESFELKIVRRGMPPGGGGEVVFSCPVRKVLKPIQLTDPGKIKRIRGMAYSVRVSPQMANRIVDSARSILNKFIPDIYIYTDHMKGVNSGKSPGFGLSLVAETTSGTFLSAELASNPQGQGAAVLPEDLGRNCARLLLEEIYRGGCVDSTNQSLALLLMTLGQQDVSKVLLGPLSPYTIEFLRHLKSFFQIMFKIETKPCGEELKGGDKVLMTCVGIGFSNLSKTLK
UniProt Q9UKK3: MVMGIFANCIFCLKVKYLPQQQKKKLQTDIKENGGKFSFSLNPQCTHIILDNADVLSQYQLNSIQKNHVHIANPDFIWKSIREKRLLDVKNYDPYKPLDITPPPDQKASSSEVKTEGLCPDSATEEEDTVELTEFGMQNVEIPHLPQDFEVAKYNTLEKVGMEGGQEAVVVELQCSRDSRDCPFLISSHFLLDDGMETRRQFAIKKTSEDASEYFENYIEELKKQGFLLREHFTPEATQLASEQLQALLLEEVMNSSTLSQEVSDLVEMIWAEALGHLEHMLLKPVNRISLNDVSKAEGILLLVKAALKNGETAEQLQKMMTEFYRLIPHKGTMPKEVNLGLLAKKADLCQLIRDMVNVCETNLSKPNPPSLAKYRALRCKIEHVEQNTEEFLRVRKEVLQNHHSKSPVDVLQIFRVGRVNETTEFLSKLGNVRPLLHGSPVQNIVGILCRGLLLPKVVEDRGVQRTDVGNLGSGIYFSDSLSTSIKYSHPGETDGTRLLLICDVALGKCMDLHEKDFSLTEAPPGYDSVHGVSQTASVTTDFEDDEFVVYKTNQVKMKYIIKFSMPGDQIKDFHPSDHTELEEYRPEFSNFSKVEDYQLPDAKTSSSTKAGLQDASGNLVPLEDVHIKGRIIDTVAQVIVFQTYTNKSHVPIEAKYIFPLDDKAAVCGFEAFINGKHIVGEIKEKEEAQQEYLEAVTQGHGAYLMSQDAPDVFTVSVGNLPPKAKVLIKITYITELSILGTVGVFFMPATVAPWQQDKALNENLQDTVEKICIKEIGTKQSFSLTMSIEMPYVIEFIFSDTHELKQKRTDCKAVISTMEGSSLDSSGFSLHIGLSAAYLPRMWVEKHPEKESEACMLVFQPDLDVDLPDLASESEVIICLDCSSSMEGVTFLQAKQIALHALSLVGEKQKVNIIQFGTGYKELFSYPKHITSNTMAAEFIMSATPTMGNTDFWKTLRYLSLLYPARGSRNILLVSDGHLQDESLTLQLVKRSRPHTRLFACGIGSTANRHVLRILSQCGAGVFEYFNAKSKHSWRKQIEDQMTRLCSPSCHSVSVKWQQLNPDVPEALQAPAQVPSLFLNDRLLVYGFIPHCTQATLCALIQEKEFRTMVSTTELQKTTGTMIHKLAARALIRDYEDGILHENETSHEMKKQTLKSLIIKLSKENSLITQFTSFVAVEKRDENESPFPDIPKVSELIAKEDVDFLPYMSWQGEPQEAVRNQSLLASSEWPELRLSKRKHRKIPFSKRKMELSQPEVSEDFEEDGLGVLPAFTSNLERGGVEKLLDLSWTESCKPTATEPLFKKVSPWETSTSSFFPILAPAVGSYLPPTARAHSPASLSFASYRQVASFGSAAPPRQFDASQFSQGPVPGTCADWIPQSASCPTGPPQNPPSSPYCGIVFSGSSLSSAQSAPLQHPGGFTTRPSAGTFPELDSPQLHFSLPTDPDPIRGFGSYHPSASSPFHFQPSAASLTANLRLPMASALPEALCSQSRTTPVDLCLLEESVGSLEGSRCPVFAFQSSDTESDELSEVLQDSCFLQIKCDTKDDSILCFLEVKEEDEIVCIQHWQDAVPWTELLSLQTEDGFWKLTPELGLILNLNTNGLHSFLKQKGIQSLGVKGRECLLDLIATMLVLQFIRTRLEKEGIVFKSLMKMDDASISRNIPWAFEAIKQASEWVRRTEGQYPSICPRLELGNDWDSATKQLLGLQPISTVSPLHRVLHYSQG
UniProt Q9UPT6: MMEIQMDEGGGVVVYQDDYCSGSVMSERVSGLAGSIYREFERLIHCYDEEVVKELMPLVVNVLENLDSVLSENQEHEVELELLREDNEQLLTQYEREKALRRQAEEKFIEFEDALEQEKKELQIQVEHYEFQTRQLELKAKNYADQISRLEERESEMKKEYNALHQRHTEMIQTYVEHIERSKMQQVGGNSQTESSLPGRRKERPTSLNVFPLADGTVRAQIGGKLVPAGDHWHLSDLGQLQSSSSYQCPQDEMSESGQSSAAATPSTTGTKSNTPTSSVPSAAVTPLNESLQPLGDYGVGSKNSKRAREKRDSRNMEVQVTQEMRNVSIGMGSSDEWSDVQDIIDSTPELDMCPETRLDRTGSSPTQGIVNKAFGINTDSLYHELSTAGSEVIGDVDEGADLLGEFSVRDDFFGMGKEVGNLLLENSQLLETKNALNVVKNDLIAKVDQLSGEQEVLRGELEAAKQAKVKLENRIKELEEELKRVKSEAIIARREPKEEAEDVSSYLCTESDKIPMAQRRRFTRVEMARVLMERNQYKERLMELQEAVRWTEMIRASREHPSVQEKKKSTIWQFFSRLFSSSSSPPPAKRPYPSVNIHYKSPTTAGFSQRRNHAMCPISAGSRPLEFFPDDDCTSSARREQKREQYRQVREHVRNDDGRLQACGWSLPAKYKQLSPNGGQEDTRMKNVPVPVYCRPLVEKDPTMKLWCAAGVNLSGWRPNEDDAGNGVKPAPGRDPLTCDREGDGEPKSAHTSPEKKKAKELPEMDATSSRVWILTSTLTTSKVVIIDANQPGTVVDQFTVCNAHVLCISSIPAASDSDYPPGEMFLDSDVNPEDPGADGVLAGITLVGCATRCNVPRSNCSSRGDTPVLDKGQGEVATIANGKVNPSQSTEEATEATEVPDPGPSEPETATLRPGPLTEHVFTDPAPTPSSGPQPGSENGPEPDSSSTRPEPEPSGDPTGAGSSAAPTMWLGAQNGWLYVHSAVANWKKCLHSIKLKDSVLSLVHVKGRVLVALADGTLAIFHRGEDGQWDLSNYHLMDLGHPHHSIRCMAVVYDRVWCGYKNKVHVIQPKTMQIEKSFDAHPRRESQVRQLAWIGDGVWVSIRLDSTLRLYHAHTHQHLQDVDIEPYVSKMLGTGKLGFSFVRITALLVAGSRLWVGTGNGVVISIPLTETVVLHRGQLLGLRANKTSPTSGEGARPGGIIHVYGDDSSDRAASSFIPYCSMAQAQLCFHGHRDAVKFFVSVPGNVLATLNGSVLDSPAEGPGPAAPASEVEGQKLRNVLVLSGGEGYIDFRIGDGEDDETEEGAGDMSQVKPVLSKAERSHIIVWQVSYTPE
UniProt Q9UQL6: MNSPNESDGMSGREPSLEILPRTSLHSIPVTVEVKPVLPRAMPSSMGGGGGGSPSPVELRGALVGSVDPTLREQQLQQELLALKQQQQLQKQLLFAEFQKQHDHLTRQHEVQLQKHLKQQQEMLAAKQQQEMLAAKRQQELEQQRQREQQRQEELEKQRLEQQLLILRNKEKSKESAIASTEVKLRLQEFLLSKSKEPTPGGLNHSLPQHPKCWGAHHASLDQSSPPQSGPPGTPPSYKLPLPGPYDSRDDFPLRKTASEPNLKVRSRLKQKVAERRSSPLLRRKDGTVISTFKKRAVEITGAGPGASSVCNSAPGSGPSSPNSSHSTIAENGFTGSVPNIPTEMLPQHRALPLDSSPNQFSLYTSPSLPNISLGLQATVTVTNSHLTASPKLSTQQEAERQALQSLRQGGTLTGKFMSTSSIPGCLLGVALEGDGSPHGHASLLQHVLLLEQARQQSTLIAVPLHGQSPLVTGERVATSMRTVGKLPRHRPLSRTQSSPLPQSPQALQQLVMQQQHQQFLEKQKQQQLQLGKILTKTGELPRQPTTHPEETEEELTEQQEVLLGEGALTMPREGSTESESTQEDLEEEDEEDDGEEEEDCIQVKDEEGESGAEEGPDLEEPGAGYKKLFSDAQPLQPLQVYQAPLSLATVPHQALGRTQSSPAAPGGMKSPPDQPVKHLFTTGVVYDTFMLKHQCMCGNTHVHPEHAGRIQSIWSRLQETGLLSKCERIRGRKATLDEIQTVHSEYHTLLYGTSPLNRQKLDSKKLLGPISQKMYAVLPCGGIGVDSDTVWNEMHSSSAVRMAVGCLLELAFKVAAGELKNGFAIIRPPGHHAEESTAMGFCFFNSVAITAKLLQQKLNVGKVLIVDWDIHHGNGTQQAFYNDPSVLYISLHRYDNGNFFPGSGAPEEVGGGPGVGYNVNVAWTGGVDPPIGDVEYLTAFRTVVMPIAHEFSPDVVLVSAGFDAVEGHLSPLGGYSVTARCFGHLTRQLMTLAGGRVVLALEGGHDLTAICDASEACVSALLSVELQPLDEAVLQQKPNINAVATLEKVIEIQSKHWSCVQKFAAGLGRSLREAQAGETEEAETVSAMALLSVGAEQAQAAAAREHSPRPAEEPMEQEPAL
UniProt Q9Y343: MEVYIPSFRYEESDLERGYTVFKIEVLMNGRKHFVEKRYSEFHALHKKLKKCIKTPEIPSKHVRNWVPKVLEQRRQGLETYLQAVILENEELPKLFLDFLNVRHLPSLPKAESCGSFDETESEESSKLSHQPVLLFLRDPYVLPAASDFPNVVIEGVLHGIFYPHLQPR
UniProt Q9UKV0: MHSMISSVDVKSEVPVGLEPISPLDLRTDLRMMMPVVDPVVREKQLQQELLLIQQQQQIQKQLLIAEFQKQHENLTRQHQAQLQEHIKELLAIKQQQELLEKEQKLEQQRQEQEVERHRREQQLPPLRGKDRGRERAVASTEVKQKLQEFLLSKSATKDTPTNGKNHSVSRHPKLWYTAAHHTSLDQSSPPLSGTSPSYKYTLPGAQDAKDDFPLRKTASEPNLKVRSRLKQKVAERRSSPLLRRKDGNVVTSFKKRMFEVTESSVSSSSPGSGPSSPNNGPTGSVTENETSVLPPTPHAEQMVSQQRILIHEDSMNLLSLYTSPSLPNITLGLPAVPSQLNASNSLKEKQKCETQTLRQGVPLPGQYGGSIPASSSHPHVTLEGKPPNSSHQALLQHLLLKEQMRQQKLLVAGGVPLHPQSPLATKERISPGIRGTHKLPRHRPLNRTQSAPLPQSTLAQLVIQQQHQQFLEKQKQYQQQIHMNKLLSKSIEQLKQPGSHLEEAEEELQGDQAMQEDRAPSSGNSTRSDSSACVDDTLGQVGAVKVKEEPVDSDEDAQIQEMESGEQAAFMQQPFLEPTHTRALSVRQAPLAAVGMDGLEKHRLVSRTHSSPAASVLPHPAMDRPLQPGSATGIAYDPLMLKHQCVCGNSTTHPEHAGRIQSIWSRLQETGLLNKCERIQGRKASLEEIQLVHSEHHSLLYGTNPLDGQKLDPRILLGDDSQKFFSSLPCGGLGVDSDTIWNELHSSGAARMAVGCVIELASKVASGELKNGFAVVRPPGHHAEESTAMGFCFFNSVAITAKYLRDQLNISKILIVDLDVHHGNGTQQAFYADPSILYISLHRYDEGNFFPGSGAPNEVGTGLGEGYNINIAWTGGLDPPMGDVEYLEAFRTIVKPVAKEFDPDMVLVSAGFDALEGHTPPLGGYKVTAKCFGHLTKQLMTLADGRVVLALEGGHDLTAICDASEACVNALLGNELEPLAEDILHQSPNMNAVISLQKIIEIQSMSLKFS

compound: CN[C@@H]1C[C@H]2O[C@@](C)([C@@H]1OC)n1c3ccccc3c3c4c(c5c6ccccc6n2c5c31)C(=O)NC4 [staurosporine]; assay: log2 fold change of tryptic peptide abundance, ligand vs vehicle (limited proteolysis) (log2 ratio); higher = more trypsin-susceptible (destabilized); settings: ligand concentration: 20 uM; sample: K562 cleared lysate; digestion: 4 min, 22 C (HT-PELSA RT4min, Orbitrap Astral)

Row | Target | log2 fold change
1 | UniProt Q9ULD4 (peptide sequence: SLLLPFEDR, peptide start residue: 1063) | -0.287
2 | ZDHHC8 (peptide sequence: TSPPTPAMYK, peptide start residue: 347) (UniProt Q9ULC8) | 0.582
3 | L1RE1 (peptide sequence: REWGPIFNILK, peptide start residue: 262) (UniProt Q9UN81) | -0.467
4 | AMDHD2 (peptide sequence: GAHPEAHLR, peptide start residue: 153) (UniProt Q9Y303) | 0.277
5 | UniProt Q9UKZ1 (peptide sequence: TLDTGETPSETK, peptide start residue: 496) | 0.0539
6 | MED16 (peptide sequence: APTLPGSAATLQLDGLAR, peptide start residue: 755) (UniProt Q9Y2X0) | 0.328
7 | MED23 (peptide sequence: FLPVFDIVIHR, peptide start residue: 963) (UniProt Q9ULK4) | -0.489
8 | DIS3 (peptide sequence: IHEEFSEHALLR, peptide start residue: 678) (UniProt Q9Y2L1) | 0.604
9 | KLHDC2 (peptide sequence: SGHVAVSDGR, peptide start residue: 33) (UniProt Q9Y2U9) | 0.317
10 | AKAP8L (peptide sequence: GNDTFGPR, peptide start residue: 172) (UniProt Q9ULX6) | -0.162
11 | STX8 (peptide sequence: LLLASFKNEGAEPDLIR, peptide start residue: 92) (UniProt Q9UNK0) | -0.355
12 | RCL1 (peptide sequence: IETKPCGEELK, peptide start residue: 341) (UniProt Q9Y2P8) | -1.28
13 | UniProt Q9UPN7 (peptide sequence: VMGILINRK, peptide start residue: 127) | 0.435
14 | SARDH (peptide sequence: EALEQQR, peptide start residue: 926) (UniProt Q9UL12) | -0.0982
15 | USP20 (peptide sequence: MAPSYVLKK, peptide start residue: 417) (UniProt Q9Y2K6) | 0.375
16 | KMT2B (peptide sequence: ATSLELPMAMR, peptide start residue: 2555) (UniProt Q9UMN6) | 0.286
17 | PARP4 (peptide sequence: VEDYQLPDAK, peptide start residue: 595) (UniProt Q9UKK3) | 0.27
18 | MAPK8IP3 (peptide sequence: QLSPNGGQEDTR, peptide start residue: 674) (UniProt Q9UPT6) | 0.0812

Reprinted at random: 3 entries already listed.
Row | Target | log2 fold change
10 | AKAP8L (peptide sequence: GNDTFGPR, peptide start residue: 172) (UniProt Q9ULX6) | -0.162
15 | USP20 (peptide sequence: MAPSYVLKK, peptide start residue: 417) (UniProt Q9Y2K6) | 0.375
2 | ZDHHC8 (peptide sequence: TSPPTPAMYK, peptide start residue: 347) (UniProt Q9ULC8) | 0.582

(next part)

Row | Target | log2 fold change
19 | UniProt Q9Y3A3 (peptide sequence: ECPAIDYTR, peptide start residue: 118) | -0.14
20 | DUSP12 (peptide sequence: MNEGFEWQLK, peptide start residue: 154) (UniProt Q9UNI6) | -0.105
21 | HDAC5 (peptide sequence: KLLGPISQK, peptide start residue: 766) (UniProt Q9UQL6) | 0.415
22 | SNX24 (peptide sequence: KHFVEKR, peptide start residue: 32) (UniProt Q9Y343) | 0.364
23 | HECTD1 (peptide sequence: MAAAGGTVSGPSSACKPGR, peptide start residue: 240) (UniProt Q9ULT8) | -0.239
24 | UniProt Q9Y2Q5 (peptide sequence: ETVGFGMLK, peptide start residue: 97) | 0.219
25 | ATP11B (peptide sequence: CSPTHISR, peptide start residue: 1144) (UniProt Q9Y2G3) | 0.0488
26 | STRIP2 (peptide sequence: QDSLDIYNER, peptide start residue: 352) (UniProt Q9ULQ0) | 0.194
27 | EIF3L (peptide sequence: TVSDLIDQK, peptide start residue: 62) (UniProt Q9Y262) | 0.168
28 | UniProt Q9UKV0 (peptide sequence: IQSIWSR, peptide start residue: 682) | -0.241
29 | EXOC6B (peptide sequence: EIESTDTACIGPTLR, peptide start residue: 24) (UniProt Q9Y2D4) | -0.746
30 | UniProt Q9UPN4 (peptide sequence: EIELVIHR, peptide start residue: 899) | 1.09
31 | DMTF1 (peptide sequence: GIKDATEIIFEMSKDER, peptide start residue: 176) (UniProt Q9Y222) | 0.736
32 | TDRKH (peptide sequence: IAHSAETR, peptide start residue: 204) (UniProt Q9Y2W6) | -0.229
33 | PSMD13 (peptide sequence: QLTFEEIAK, peptide start residue: 290) (UniProt Q9UNM6) | 0.548
34 | RUVBL1 (peptide sequence: AVLLAGPPGTGK, peptide start residue: 65) (UniProt Q9Y265) | -0.0993
35 | GTF3C4 (peptide sequence: EILPFTDRK, peptide start residue: 752) (UniProt Q9UKN8) | 0.234
36 | INTS6 (peptide sequence: HKRPGEPNMQGIPK, peptide start residue: 642) (UniProt Q9UL03) | 0.381
